Laboratory results published in US20230151437A1, “USE OF PROTEIN ASSEMBLIES TO RECORD CELLULAR EVENTS” (President and Fellows of Harvard College, priority 2021, published 2023).
Results are given in words; binding and its absence hold for the method and conditions named. Some results given as binding are weak or reduced against the parent protein; the word gives no strength. Where a sequence is shown, tags or fusion partners need not be part of it.

What was measured:
[1] = molecular target: iPAK4 (fusion of the catalytic domain of the Pak4 kinase and the 38 amino acid iBox domain of its inhibitor Inka1); assay: Tet-ON induced eGFP-iPAK4 in HEK cells; confocal imaging of incorporation into iPAK4 assemblies
[2] = molecular target: iPAK4 (fusion of the catalytic domain of the Pak4 kinase and the 38 amino acid iBox domain of its inhibitor Inka1); assay: PMA-induced cFos::eGFP-iPAK4 in neurons with HT dye timestamps; confocal imaging
[3] = molecular target: iPAK4 (fusion of the catalytic domain of the Pak4 kinase and the 38 amino acid iBox domain of its inhibitor Inka1); assay: PMA-induced cFos::eGFP-iPAK4 in neurons; fluorescence imaging of incorporation into iPAK4 assemblies

Measured: binding

B1: eGFP-iPAK4 (protein)
chain: MSKGEELFTGVVPILVELDGDVNGYKFSVSGEGEGDATYGKLTLKFICTTGKLPVPWPTLVTTLTYGVQCFSRYPDHMKRHDFFKSAMPEGYVQERTIFFKDDGNYKTRAEVKFEGDTLVNRIELKGIDFKEDGNILGHKLEYNYNSHNVYIMADKQKNGIKANFKTRHNIEDGGVQLADHYQQNTPIGDDPVLLPDNHYLSTQSALSKDPNEKRDHMVILEFVTAAGITHGMDELYKSGGSEAEDWTAALLNRGRSRQPLVLGDNCFADLVHNWMELPEEFPAAPAVPGPPGPRSPQREPQRVSHEQFRAALQLVVDPGDPRSYLDNFIKIGEGSTGIVCIATVRSSGKLVAVKKMDLRKQQRRELLFNEVVIMRDYQHENVVEMYNSYLVGDELWVVMEFLEGGALTDIVTHTRMNEEQIAAVCLAVLQALSVLHAQGVIHRDIKSDSILLTHDGRVKLSDFGFCAQVSKEVPRRKSLVGTPYWMAPELISRLPYGPEVDIWSLGIMVIEMVDGEPPYFNEPPLKAMKMIRDNLPPRLKNLHKVSPSLKGFLDRLLVRDPAQRATAAELLKHPFLAKAGPPASIVPLMRQNRTR
binds: all assays above
